According to article PMC12326010, “Substrate accessibility regulation of human TopIIa decatenation by cohesin” (Nature Communications, 2025):

Target: T1, Human cohesin subunit STAG1 with C-terminal 3C-ybbr-tev-strepII tag (human) (UniProt Q8WVM7)
T1 sequence: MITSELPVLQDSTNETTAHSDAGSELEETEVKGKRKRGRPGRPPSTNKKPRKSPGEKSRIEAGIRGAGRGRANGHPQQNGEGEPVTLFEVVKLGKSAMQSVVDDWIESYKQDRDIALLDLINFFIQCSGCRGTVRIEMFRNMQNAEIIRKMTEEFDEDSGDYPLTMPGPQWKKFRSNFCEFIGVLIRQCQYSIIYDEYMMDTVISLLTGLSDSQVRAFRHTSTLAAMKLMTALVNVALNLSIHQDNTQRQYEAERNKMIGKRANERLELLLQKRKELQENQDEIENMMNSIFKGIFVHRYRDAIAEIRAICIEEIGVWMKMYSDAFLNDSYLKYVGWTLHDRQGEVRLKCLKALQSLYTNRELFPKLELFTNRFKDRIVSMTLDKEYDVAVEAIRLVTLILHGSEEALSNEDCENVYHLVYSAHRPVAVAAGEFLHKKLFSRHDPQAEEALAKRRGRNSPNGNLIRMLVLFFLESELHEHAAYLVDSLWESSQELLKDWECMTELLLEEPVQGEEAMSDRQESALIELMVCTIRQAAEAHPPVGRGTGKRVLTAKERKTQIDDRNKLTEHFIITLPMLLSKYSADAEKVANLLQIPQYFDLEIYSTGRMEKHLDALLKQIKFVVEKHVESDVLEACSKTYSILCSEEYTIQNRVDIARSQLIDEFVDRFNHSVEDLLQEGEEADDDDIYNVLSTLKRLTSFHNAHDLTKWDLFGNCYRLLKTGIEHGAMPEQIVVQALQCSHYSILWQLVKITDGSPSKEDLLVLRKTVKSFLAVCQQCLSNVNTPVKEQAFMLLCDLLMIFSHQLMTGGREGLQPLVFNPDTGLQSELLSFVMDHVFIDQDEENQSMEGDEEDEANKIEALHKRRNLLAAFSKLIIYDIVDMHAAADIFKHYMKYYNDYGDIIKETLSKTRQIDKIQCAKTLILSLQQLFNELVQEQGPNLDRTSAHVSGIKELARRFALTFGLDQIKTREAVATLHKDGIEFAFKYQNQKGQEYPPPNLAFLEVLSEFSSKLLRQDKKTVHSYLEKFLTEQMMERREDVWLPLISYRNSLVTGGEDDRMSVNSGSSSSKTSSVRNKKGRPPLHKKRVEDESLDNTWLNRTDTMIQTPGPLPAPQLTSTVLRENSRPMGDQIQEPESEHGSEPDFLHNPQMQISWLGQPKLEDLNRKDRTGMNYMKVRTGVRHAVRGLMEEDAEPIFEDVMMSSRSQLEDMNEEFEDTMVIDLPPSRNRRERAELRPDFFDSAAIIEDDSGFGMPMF
Assay: co-purification (Strep affinity, heparin, size exclusion); cohesin STAG1 tetramer co-expressed in insect cells; lysate loaded on StrepTrap HP (StrepII on STAG1), eluted with desthiobiotin, HiTrap Heparin, Superose 6; 20 mM HEPES pH 8, 300 mM KCl, 5 mM MgCl2, 1 mM DTT, 10% glycerol

binding: binds
Substance: Human cohesin subunit SMC1

No constants are given. Whether binding was seen depends on the method and setting. In cells and extracts the contact can be indirect. Binding calls can cover weak binding; strength is not graded here. Sequences can lack the tags named with a protein.
